US20140200135A1, “Carbamoylmethoxy- and carbamoylmethylthio- and carbamoylmethylamino benzamides for combating invertebrate pests” (BASF SE, priority 2011, published 2014)
Some entries share one result that the patent states for a list of compounds.

What was measured:
Assay type in all cases: in vivo
[1] = test system: Green Peach Aphid (Myzus persicae); assay: Green peach aphid spray test on bell pepper plants, mortality; settings: 2500 ppm; after 5 days; sprayed bell pepper plants
[2] = test system: Vetch aphid (Megoura viciae); assay: Vetch aphid broad bean leaf disk test, mortality; settings: 2500 ppm; 5 days; adult aphids on broad bean leaf disks
How it was run: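 Broad bean leaf disks sprayed with compounds formulated in 25% DMSO/water at several concentrations, two replicates, then infested with 5-8 adult aphids. After 5 days at about 23±1° C and 50±5% RH, mortality and fecundity were scored visually.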

[3] = test system: TOBACCO budworm (Heliothis virescens); assay: Tobacco budworm microtiter diet test, egg and larval mortality; settings: 2500 ppm, 5 days, insect diet
[4] = test system: Southern Armyworm (Spodoptera eridiana); 2nd Instar Larvae; assay: Southern armyworm foliar spray test on lima bean, mortality; settings: 500 ppm; 4 days after treatment; lima bean foliage spray
[5] = test system: Diamond Backmoth (Plutella xylostella); assay: Diamond backmoth leaf-dip test, mortality; settings: 500 ppm; 72 hours after treatment; 3rd instar larvae on dipped cabbage leaves
[6] = test system: Mediterranean Fruitfly (Ceratitis capitata); assay: Mediterranean fruitfly microtiter diet test, egg and larval mortality; settings: 2500 ppm, 5 days, insect diet
How it was run: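 Microtiter plates of insect diet holding 50-80 C. capitata eggs were sprayed with 5 μl of compound in 25% DMSO/water at several concentrations, two replicates. Plates held 5 days at about 28±1 °C, 80±5% RH; egg and larval mortality scored visually.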

[7] = test system: Boll weevil (Anthonomus grandis); assay: Boll weevil microtiter diet test, egg and larval mortality; settings: 2500 ppm, 5 days, insect diet
[8] = test system: Cowpea Aphid (Aphis Craccivora); assay: Cowpea aphid spray test on potted cowpea plants, mortality; settings: 500 ppm; after 72 hours; sprayed cowpea plants
[9] = test system: Orchid Thrips (dichromothrips corbetti); assay: Orchid thrips floral-immersion test, mortality; settings: 500 ppm, 72 hours after treatment, adult thrips
Experimental: Dichromothrips corbetti adults used for bioassay were obtained from a colony maintained continuously under laboratory conditions. For testing purposes, the test compound was diluted in a 1:1 mixture of acetone:water (vol:vol), plus 0.01% vol/vol Alkamuls® EL 620 surfactant.
Thrips potency of each compound was evaluated by using a floral-immersion technique. Plastic petri dishes were used as test arenas. All petals of individual, intact or chid flowers were dipped into treatment solution and allowed to dry. Treated flowers were placed into individual petri dishes along with about 20 adult thrips. The petri dishes were then covered with lids. All test arenas were held under continuous light and a temperature of about 28° C. for duration of the assay. After 3 days, the numbers of live thrips were counted on each flower, and along inner walls of each petri dish. The percent mortality was recorded 72 hours after treatment.

Row | Structure (SMILES) | mortality in comparison with untreated controls [1] | mortality in comparison with untreated controls [2] | mortality in comparison with untreated controls [3] | mortality in comparison with untreated controls [4] | mortality in comparison with untreated controls [5] | mortality in comparison with untreated controls [6] | mortality in comparison with untreated controls [7] | mortality in comparison with untreated controls [8] | mortality in comparison with untreated controls [9]
1 | CCC(ONC(=O)c1cc(F)cc(Br)c1NC(=O)c1cc(Br)nn1-c1ncccc1Cl)C(=O)N(C)C (stereo not drawn) [Compound 1-63] | over 75% | over 75% | over 75% | 100% | 100% | over 75% | over 75% | over 75% | over 75%
2 | CCC(ONC(=O)c1cc(F)cc(Br)c1NC(=O)c1cc(Br)nn1-c1ncccc1Cl)C(=O)NC (stereo not drawn) [Compound 1-69] | over 75% | over 75% | over 75% | 100% | 100% | over 75% | over 75% | over 75% | over 75%
3 | CCC(ONC(=O)c1cc(Cl)cc(Br)c1NC(=O)c1cc(Br)nn1-c1ncccc1Cl)C(=O)N(C)C (stereo not drawn) [Compound 1-70] | over 75% | over 75% | over 75% | 100% | 100% | over 75% | over 75% | over 75% | over 75%
4 | CCC(ONC(=O)c1cc(F)cc(Br)c1NC(=O)c1cc(Br)nn1-c1ncccc1Cl)C(N)=O (stereo not drawn) [Compound 1-71] | over 75% | over 75% | over 75% | 100% | 100% | over 75% | over 75% | over 75% | over 75%
